# Results published in the supplement of paper PMC8728848.
# This is one part of the list.
# Assays:
# Test in all cases: glycan array binding signal (z-score within array); higher = stronger binding
# Settings in all cases: glycan notation: IUPAC condensed, linker removed
# [1] = target: Fuc(a1-2)[Gal(a1-3)]Gal(b1-4)GlcNAc(b1-2)Man(a1-3)[Fuc(a1-2)[Gal(a1-3)]Gal(b1-4)GlcNAc(b1-2)Man(a1-6)]Man(b1-4)GlcNAc(b1-4)[Fuc(a1-6)]GlcNAc
# Outline: (§1)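 The binding signal is a Z-score computed within each array. Data were drawn from 3228 arrays in the Consortium for Functional Glycomics database, restricted to those with a known protein sequence. Scores were averaged over arrays of the same protein sequence at different concentrations or buffers, and over linkers, and negative values can be taken as non-binding.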
# [2] = target: Fuc(a1-2)[Gal(a1-3)]Gal(b1-4)GlcNAc(b1-3)GalNAc
# Outline: as §1
# [3] = target: Fuc(a1-2)[Gal(a1-3)]Gal(b1-4)GlcNAc(b1-3)[Fuc(a1-2)[Gal(a1-3)]Gal(b1-4)GlcNAc(b1-6)]GalNAc
# Outline: as §1
# [4] = target: Fuc(a1-2)[Gal(a1-3)]Gal(b1-4)GlcNAc(b1-6)GalNAc
# Outline: as §1
# [5] = target: Fuc(a1-2)[Gal(a1-3)]Gal(b1-4)[Fuc(a1-3)]Glc
# Outline: as §1
# [6] = target: Fuc(a1-2)[Gal(a1-3)]Gal(b1-4)[Fuc(a1-3)]GlcNAc
# Outline: as §1
# [7] = target: Fuc(a1-2)[Gal(a1-3)]Gal(b1-4)[Fuc(a1-3)]GlcNAc(b1-3)GalNAc
# Outline: as §1
# [8] = target: Fuc(a1-2)[Gal(a1-4)]Gal(b1-4)GlcNAc
# Outline: as §1
# [9] = target: Fuc(a1-2)[GalNAc(a1-3)]Gal
# Outline: as §1
# [10] = target: Fuc(a1-2)[GalNAc(a1-3)]Gal(b1-3)GalNAc(a1-3)[Fuc(a1-2)]Gal(b1-4)GlcNAc
# Outline: as §1
# [11] = target: Fuc(a1-2)[GalNAc(a1-3)]Gal(b1-3)GalNAc(b1-3)Gal(a1-4)Gal(b1-4)Glc
# Outline: as §1
# [12] = target: Fuc(a1-2)[GalNAc(a1-3)]Gal(b1-3)GlcNAc
# Outline: as §1
# [13] = target: Fuc(a1-2)[GalNAc(a1-3)]Gal(b1-3)GlcNAc(b1-2)Man(a1-3)[Fuc(a1-2)[GalNAc(a1-3)]Gal(b1-3)GlcNAc(b1-2)Man(a1-6)]Man(b1-4)GlcNAc(b1-4)GlcNAc
# Outline: as §1
# [14] = target: Fuc(a1-2)[GalNAc(a1-3)]Gal(b1-3)GlcNAc(b1-2)Man(a1-3)[Fuc(a1-2)[GalNAc(a1-3)]Gal(b1-3)GlcNAc(b1-2)Man(a1-6)]Man(b1-4)GlcNAc(b1-4)[Fuc(a1-6)]GlcNAc
# Outline: as §1
# [15] = target: Fuc(a1-2)[GalNAc(a1-3)]Gal(b1-3)GlcNAc(b1-3)GalNAc
# Outline: as §1
# [16] = target: Fuc(a1-2)[GalNAc(a1-3)]Gal(b1-3)GlcNAc(b1-6)GalNAc
# Outline: as §1
# [17] = target: Fuc(a1-2)[GalNAc(a1-3)]Gal(b1-4)Glc
# Outline: as §1
# [18] = target: Fuc(a1-2)[GalNAc(a1-3)]Gal(b1-4)GlcNAc
# Outline: as §1
# [19] = target: Fuc(a1-2)[GalNAc(a1-3)]Gal(b1-4)GlcNAc(b1-2)Man
# Outline: as §1
# [20] = target: Fuc(a1-2)[GalNAc(a1-3)]Gal(b1-4)GlcNAc(b1-2)Man(a1-3)[Fuc(a1-2)[GalNAc(a1-3)]Gal(b1-4)GlcNAc(b1-2)Man(a1-6)]Man(b1-4)GlcNAc(b1-4)GlcNAc
# Outline: as §1
# [21] = target: Fuc(a1-2)[GalNAc(a1-3)]Gal(b1-4)GlcNAc(b1-2)Man(a1-3)[Fuc(a1-2)[GalNAc(a1-3)]Gal(b1-4)GlcNAc(b1-2)Man(a1-6)]Man(b1-4)GlcNAc(b1-4)[Fuc(a1-6)]GlcNAc
# Outline: as §1
# [22] = target: Fuc(a1-2)[GalNAc(a1-3)]Gal(b1-4)GlcNAc(b1-3)Gal(b1-4)GlcNAc
# Outline: as §1
# [23] = target: Fuc(a1-2)[GalNAc(a1-3)]Gal(b1-4)GlcNAc(b1-3)Gal(b1-4)GlcNAc(b1-3)Gal(b1-4)GlcNAc
# Outline: as §1
# [24] = target: Fuc(a1-2)[GalNAc(a1-3)]Gal(b1-4)GlcNAc(b1-3)GalNAc
# Outline: as §1
# [25] = target: Fuc(a1-2)[GalNAc(a1-3)]Gal(b1-4)GlcNAc(b1-3)[Fuc(a1-2)[GalNAc(a1-3)]Gal(b1-4)GlcNAc(b1-6)]GalNAc
# Outline: as §1
# [26] = target: Fuc(a1-2)[GalNAc(a1-3)]Gal(b1-4)GlcNAc(b1-6)GalNAc
# Outline: as §1
# [27] = target: Fuc(a1-2)[GalNAc(a1-3)]Gal(b1-4)[Fuc(a1-3)]GlcNAc
# Outline: as §1
# [28] = target: Fuc(a1-2)[GalNAc(a1-3)]Gal(b1-4)[Fuc(a1-3)]GlcNAc(b1-3)GalNAc
# Outline: as §1
# [29] = target: Fuc(a1-2)[GalNAc(a1-4)]Gal(b1-4)GlcNAc
# Outline: as §1
# [30] = target: Fuc(a1-2)[GalNAc(b1-3)]Gal
# Outline: as §1
# [31] = target: Fuc(a1-3)GlcNAc
# Outline: as §1
# [32] = target: Fuc(a1-3)[Gal(b1-4)]Glc6S
# Outline: as §1
# [33] = target: Fuc(a1-3)[Gal(b1-4)]GlcNAc
# Outline: as §1
# [34] = target: Fuc(a1-3)[Gal(b1-4)]GlcNAc(b1-2)Man
# Outline: as §1
# [35] = target: Fuc(a1-3)[Gal(b1-4)]GlcNAc(b1-2)Man(a1-3)[Fuc(a1-3)[Gal(b1-4)]GlcNAc(b1-2)Man(a1-6)]Man(b1-4)GlcNAc(b1-4)GlcNAc
# Outline: as §1
# [36] = target: Fuc(a1-3)[Gal(b1-4)]GlcNAc(b1-2)Man(a1-3)[Fuc(a1-3)[Gal(b1-4)]GlcNAc(b1-2)Man(a1-6)]Man(b1-4)GlcNAc(b1-4)[Fuc(a1-6)]GlcNAc
# Outline: as §1
# [37] = target: Fuc(a1-3)[Gal(b1-4)]GlcNAc(b1-3)Gal(b1-3)[Fuc(a1-4)]GlcNAc
# Outline: as §1
# [38] = target: Fuc(a1-3)[Gal(b1-4)]GlcNAc(b1-3)Gal(b1-4)[Fuc(a1-3)]GlcNAc
# Outline: as §1
# [39] = target: Fuc(a1-3)[Gal(b1-4)]GlcNAc(b1-3)Gal(b1-4)[Fuc(a1-3)]GlcNAc(b1-3)Gal(b1-4)[Fuc(a1-3)]GlcNAc
# Outline: as §1
# [40] = target: Fuc(a1-3)[Gal(b1-4)]GlcNAc(b1-3)GalNAc
# Outline: as §1
# [41] = target: Fuc(a1-3)[Gal(b1-4)]GlcNAc(b1-6)GalNAc
# Outline: as §1
# [42] = target: Fuc(a1-3)[Gal(b1-4)]GlcNAc(b1-6)[Gal(b1-3)GlcNAc(b1-3)]Gal(b1-4)Glc
# Outline: as §1
# [43] = target: Fuc(a1-3)[Gal(b1-4)]GlcNAc6S
# Outline: as §1
# [44] = target: Fuc(a1-3)[Gal3S(b1-4)]Glc
# Outline: as §1
# [45] = target: Fuc(a1-3)[Gal3S(b1-4)]GlcNAc
# Outline: as §1
binder,measurement,setting,value
Lb MiSSP8 (Laccaria bicolor) (protein) MYFHTLFACATLMLITTAHASPTVINSLDSRKADLNGDVEARHAADWRRDSDWRRDSDWRRDSDWRRDSD,glycan array binding signal (z-score),[1],-0.033
same,glycan array binding signal (z-score),[2],-0.778
same,glycan array binding signal (z-score),[3],-0.571
same,glycan array binding signal (z-score),[4],-0.53
same,glycan array binding signal (z-score),[5],-0.778
same,glycan array binding signal (z-score),[6],-0.005
same,glycan array binding signal (z-score),[7],-0.806
same,glycan array binding signal (z-score),[8],0.685
same,glycan array binding signal (z-score),[9],-0.616
same,glycan array binding signal (z-score),[10],-0.847
same,glycan array binding signal (z-score),[11],1.36
same,glycan array binding signal (z-score),[12],0.416
same,glycan array binding signal (z-score),[13],-0.219
same,glycan array binding signal (z-score),[14],-0.419
same,glycan array binding signal (z-score),[15],0.582
same,glycan array binding signal (z-score),[16],-0.854
same,glycan array binding signal (z-score),[17],-0.33
same,glycan array binding signal (z-score),[18],-0.502
same,glycan array binding signal (z-score),[19],-0.606
same,glycan array binding signal (z-score),[20],0.492
same,glycan array binding signal (z-score),[21],-0.074
same,glycan array binding signal (z-score),[22],-0.751
same,glycan array binding signal (z-score),[23],0.851
same,glycan array binding signal (z-score),[24],-0.785
same,glycan array binding signal (z-score),[25],-0.702
same,glycan array binding signal (z-score),[26],-0.647
same,glycan array binding signal (z-score),[27],0.83
same,glycan array binding signal (z-score),[28],0.402
same,glycan array binding signal (z-score),[29],-0.509
same,glycan array binding signal (z-score),[30],-0.336
same,glycan array binding signal (z-score),[31],0.437
same,glycan array binding signal (z-score),[32],1.35
same,glycan array binding signal (z-score),[33],-0.088
same,glycan array binding signal (z-score),[34],-0.516
same,glycan array binding signal (z-score),[35],-0.709
same,glycan array binding signal (z-score),[36],0.685
same,glycan array binding signal (z-score),[37],1.1
same,glycan array binding signal (z-score),[38],1.11
same,glycan array binding signal (z-score),[39],-0.675
same,glycan array binding signal (z-score),[40],-0.578
same,glycan array binding signal (z-score),[41],-0.454
same,glycan array binding signal (z-score),[42],0.713
same,glycan array binding signal (z-score),[43],1.99
same,glycan array binding signal (z-score),[44],0.243
same,glycan array binding signal (z-score),[45],-0.129

# Reformatted with tabs: entries from further up.
binder	measurement	setting	value
Lb MiSSP8 (Laccaria bicolor) (protein) MYFHTLFACATLMLITTAHASPTVINSLDSRKADLNGDVEARHAADWRRDSDWRRDSDWRRDSDWRRDSD	glycan array binding signal (z-score)	[7]	-0.806
same	glycan array binding signal (z-score)	[8]	0.685
